These are yes or no findings as the source states them, for the method shown. In cells and extracts the contact can be indirect. Some binding calls cover weakened binding; strength is not graded here.
Key:
Flag-Smad3 = Flag-Smad3 (UniProt P84022); test: co-IP; HEK 293 cells transiently transfected with the Flag fusion, stimulated with Activin for 1 hr; lysed in RIPA buffer; anti-Flag M2 beads, 4 °C overnight; blot with anti-Smad4
GFP-Smad3 = GFP-Smad3 (UniProt P84022); test: co-IP; HEK 293 cells stably expressing the GFP fusion, with or without Activin for 1 hr; lysed in cold RIPA buffer; GFP antibody with Protein-G Sepharose beads, 4 °C overnight; blot with anti-Smad4

Amino acid sequences for entries named in this document (tags omitted).
UniProt P84022: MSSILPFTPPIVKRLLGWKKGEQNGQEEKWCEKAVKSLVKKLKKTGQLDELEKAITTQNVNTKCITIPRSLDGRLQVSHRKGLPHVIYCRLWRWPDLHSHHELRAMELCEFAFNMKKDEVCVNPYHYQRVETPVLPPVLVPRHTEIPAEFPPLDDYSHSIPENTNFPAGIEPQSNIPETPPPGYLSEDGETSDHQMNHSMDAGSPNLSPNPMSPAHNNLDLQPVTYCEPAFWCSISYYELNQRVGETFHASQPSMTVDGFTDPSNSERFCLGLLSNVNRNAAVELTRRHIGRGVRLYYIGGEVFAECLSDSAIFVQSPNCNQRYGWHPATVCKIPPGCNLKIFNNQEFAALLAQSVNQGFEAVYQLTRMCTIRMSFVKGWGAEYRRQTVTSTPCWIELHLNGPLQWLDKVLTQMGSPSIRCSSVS
UniProt Q13485: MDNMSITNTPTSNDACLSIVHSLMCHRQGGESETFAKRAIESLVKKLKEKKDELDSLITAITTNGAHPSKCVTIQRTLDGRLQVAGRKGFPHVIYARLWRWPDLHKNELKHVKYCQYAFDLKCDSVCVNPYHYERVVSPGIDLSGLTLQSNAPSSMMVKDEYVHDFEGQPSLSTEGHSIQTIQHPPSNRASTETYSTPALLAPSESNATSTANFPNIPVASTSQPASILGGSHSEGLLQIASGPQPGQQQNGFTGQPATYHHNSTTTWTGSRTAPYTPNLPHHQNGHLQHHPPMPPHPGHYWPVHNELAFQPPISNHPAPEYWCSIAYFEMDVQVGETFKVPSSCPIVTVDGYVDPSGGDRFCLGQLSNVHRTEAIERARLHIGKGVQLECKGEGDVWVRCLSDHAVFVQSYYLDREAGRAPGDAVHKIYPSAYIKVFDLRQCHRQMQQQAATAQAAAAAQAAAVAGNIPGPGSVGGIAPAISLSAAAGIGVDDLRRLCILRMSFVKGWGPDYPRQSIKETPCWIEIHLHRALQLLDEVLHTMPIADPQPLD

## Smad4 (from UniProt Q13485 1-552)
Flag-Smad3
  binding: binds weakly
GFP-Smad3
  binding: binds weakly
